Results are given in words; binding and its absence hold for the method and conditions named. Binding seen in cells or lysates may run through a third protein. A yes stands for co-enrichment or nearness to the bait. Other partners may have been found.

The chains behind the UniProt entries cited, without tags or fusion partners. Where a name states a change or a piece, a line headed by the entry shows the natural chain unless it says otherwise.
UniProt Q9LMA8: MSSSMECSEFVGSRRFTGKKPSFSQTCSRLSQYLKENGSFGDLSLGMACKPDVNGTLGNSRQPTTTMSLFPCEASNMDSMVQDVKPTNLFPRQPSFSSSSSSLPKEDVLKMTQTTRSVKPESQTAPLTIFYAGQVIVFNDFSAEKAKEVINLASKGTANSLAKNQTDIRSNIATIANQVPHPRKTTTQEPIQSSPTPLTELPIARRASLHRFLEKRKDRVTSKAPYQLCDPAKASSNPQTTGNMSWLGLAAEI

In publication doi:10.1101/2024.03.28.587122 one finds binding data, which are given here for two molecules.

The test has as its target Venus-JAZ1 (in 35S:Venus-JAZ1 transgenic Arabidopsis seedlings) (Arabidopsis thaliana) (UniProt Q9LMA8). Kind of test: affinity purification with mass spectrometry.

B1: ASK4 (protein, UniProt Q9LNT9 1-163)
chain: MAETKKMIILKSSDGESFEIEEAVAVKSQTIKHMIEDDCADNGIPLPNVTGAILAKVIEYCKKHVEAAAEAGGDKDFYGSAENDELKNWDSEFVKVDQPTLFDLILAANYLNIGGLLDLTCKAVADQMRGKTPEQMRAHFNIKNDYTPEEEAEVRNENKWAFE
B1: the binding result is “binds”.

B2: CUL4 (protein, UniProt Q8LGH4 1-792)
chain: MSLPTKRSTFSAASASDDSSYSSPPMKKAKNDLHHSPQHPNTADKVVGFHMEEDPTPAAANLSRKKATLPQPTKKFVIKLNKAKPTLPTNFEENTWEKLQSAIRAIFLKKKISFDLESLYQAVDNLCLHKLDGKLYDQIEKECEEHISAALQSLVGQNTDLTVFLSRVEKCWQDFCDQMLMIRSIALTLDRKYVIQNPNVRSLWEMGLQLFRKHLSLAPEVEQRTVKGLLSMIEKERLAEAVNRTLLSHLLKMFTALGIYMESFEKPFLEGTSEFYAAEGMKYMQQSDVPEYLKHVEGRLHEENERCILYIDAVTRKPLITTVERQLLERHILVVLEKGFTTLMDGRRTEDLQRMQTLFSRVNALESLRQALSSYVRKTGQKIVMDEEKDKDMVQSLLDFKASLDIIWEESFYKNESFGNTIKDSFEHLINLRQNRPAELIAKFLDEKLRAGNKGTSEEELESVLEKVLVLFRFIQGKDVFEAFYKKDLAKRLLLGKSASIDAEKSMISKLKTECGSQFTNKLEGMFKDIELSKEINESFKQSSQARTKLPSGIEMSVHVLTTGYWPTYPPMDVKLPHELNVYQDIFKEFYLSKYSGRRLMWQNSLGHCVLKADFSKGKKELAVSLFQAVVLMLFNDAMKLSFEDIKDSTSIEDKELRRTLQSLACGKVRVLQKNPKGRDVEDGDEFEFNDEFAAPLYRIKVNAIQMKETVEENTSTTERVFQDRQYQIDAAIVRIMKTRKVLSHTLLITELFQQLKFPIKPADLKKRIESLIDREYLEREKSNPQIYNYLA
Turning to B2, the binding entry was “binds”.
